# In PMC7819943, “Rice protein-binding microarrays: a tool to detect cis-acting elements near promoter regions in rice”:
# The list shows a part of the results.
# Biological target: T1, OsSMF1 (Oryza sativa, UniProt Q6ZLB0 1-436)
# T1 sequence: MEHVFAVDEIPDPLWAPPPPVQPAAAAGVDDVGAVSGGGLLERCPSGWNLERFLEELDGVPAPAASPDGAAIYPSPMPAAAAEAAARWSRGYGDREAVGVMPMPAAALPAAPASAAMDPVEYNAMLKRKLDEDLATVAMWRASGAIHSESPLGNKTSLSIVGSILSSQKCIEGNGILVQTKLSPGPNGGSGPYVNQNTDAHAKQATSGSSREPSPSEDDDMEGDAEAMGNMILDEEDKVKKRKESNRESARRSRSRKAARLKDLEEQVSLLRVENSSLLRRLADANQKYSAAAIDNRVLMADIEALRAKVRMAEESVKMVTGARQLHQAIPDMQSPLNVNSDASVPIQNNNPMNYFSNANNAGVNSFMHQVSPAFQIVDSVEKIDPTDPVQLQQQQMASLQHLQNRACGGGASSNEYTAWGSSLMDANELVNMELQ
# Experiment: protein-binding microarray (RPBM); PBS, 2% BSA, 51.3 ng/ul salmon testes DNA, 50 uM zinc acetate, 200 nM TF, 25 C, 1 h; high values mean tight binding
# Conditions: protein: recombinant; tags: N-terminal polyhistidine and DsRed monomer fusion (pET32a); chain copies: 2; label: CyDye5-dUTP incorporated in the synthesized complementary strand; 3' TTTTT single-stranded linker to array surface; dsDNA, one strand shown
# Outline: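 Binding signal is reported as fluorescence intensity per feature (arbitrary units) from an Axon 4000B scanner. Incubation used 200 nM of each Ni–NTA-purified, N-terminally polyhistidine- and DsRed-fused transcription factor from E. coli BL21-CodonPlus on a double-stranded custom Agilent array for 1 h at 25 °C, with 50 µM zinc acetate in the buffer, followed by washing.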
row,Sequence,binding signal
1,TCTATCTTCTCCATTTCTCATACTCAAAACTAGTTGGTGGCGGAGTCACCTAGTGCAG,3720 fluorescence intensity (a.u.)
2,GGTCCTCCAACTTGTTCAGTTGTGTCACCTCGGTCCCTAACGGAGTCACCTAGTGCAG,3940 fluorescence intensity (a.u.)
3,CGAAGATAGCACGCGAAGCTGACTGGACAGGCTTCATCTTCGGAGTCACCTAGTGCAG,4810 fluorescence intensity (a.u.)
4,TATTAGGATTTTGCTGAGATCTGGTGAAGCCACGTCACTCCGGAGTCACCTAGTGCAG,31500 fluorescence intensity (a.u.)
5,TCTTTGGGAAGGAGTGGCCGCCACCCTACCTCGGGCCCGACGGAGTCACCTAGTGCAG,3260 fluorescence intensity (a.u.)
6,TAAATGCTTTTAATTTCACTAGTCACTGACATGAGTATTTCGGAGTCACCTAGTGCAG,3280 fluorescence intensity (a.u.)
7,ATAGAGATCACAGTCACACACATATGGCCTGTGCATTTACCGGAGTCACCTAGTGCAG,3720 fluorescence intensity (a.u.)
8,GCGACCAGCCTCTCGTGTCGTGGTACGTGCTTCTTGTCCCCGGAGTCACCTAGTGCAG,3300 fluorescence intensity (a.u.)
9,ATCTCCTCGCCGGCTCCGCATCCATCGCCTCGAGTCAGCGCGGAGTCACCTAGTGCAG,5080 fluorescence intensity (a.u.)
10,ACGATAAGGTCGTCCACGTCAACTCTCACGCCACGTGGCCCGGAGTCACCTAGTGCAG,24500 fluorescence intensity (a.u.)
11,CTCTGGTTTGATATCAATTAATCTGTGTCTATGTGTCGCACGGAGTCACCTAGTGCAG,3540 fluorescence intensity (a.u.)
12,AGAACCCTACATCTCATCTTCCACCACAGCAATCTCTCAACGGAGTCACCTAGTGCAG,3470 fluorescence intensity (a.u.)
13,CTAGCTAGTGGTGGTGGTGGCCAGTGGGAGATCGAAGTGGCGGAGTCACCTAGTGCAG,3280 fluorescence intensity (a.u.)
14,AAGATAAAGCAGTGAGTCACTAAAATATAAGCCCTCCCTTCGGAGTCACCTAGTGCAG,6380 fluorescence intensity (a.u.)
15,AGACACTGATGAGAAGTTGCTTAGAAGAGCTAAAGAACTTCGGAGTCACCTAGTGCAG,29000 fluorescence intensity (a.u.)
16,GACTAAGAAACAATGCAGCAGCTGATTCATACCTTCCTTCCGGAGTCACCTAGTGCAG,4720 fluorescence intensity (a.u.)
17,AATCACCATCATCGCTGTTTGGGAGGGTCTGCCTGGCTTACGGAGTCACCTAGTGCAG,3490 fluorescence intensity (a.u.)
18,AGCTATACATTGTACGTGTAATTTAACAGCATGCCTGCAGCGGAGTCACCTAGTGCAG,3240 fluorescence intensity (a.u.)
19,ATTTATAGAAATGCCATGTGGCGGCTTAGTAACGTTTGTACGGAGTCACCTAGTGCAG,9840 fluorescence intensity (a.u.)
20,AAGAAGCATTTCAAGTACCCACATTATTTACTGGCGGAGCCGGAGTCACCTAGTGCAG,3570 fluorescence intensity (a.u.)
21,ATTAATGACCTAATCTCCAACTAAACTCCCTATCAATTTGCGGAGTCACCTAGTGCAG,3190 fluorescence intensity (a.u.)

# A second format for some results above:
row	Sequence	binding signal
16	GACTAAGAAACAATGCAGCAGCTGATTCATACCTTCCTTCCGGAGTCACCTAGTGCAG	4720 fluorescence intensity (a.u.)
17	AATCACCATCATCGCTGTTTGGGAGGGTCTGCCTGGCTTACGGAGTCACCTAGTGCAG	3490 fluorescence intensity (a.u.)

# (next part)

row,Sequence,binding signal
1,GTCTTAGTTAGTTTAATCCCATTTACAAATCTTACGTGGTCGGAGTCACCTAGTGCAG,5320 fluorescence intensity (a.u.)
2,TCCCTGCTCATCGTCTGATCGCCACGCAAGCTGCCACGTCCGGAGTCACCTAGTGCAG,19700 fluorescence intensity (a.u.)
3,CGAAAATGATCTGACACTTATTCGAAAGCAACGTCACAAGCGGAGTCACCTAGTGCAG,4300 fluorescence intensity (a.u.)
4,GAAGAGGAGGGAAAGAGAGTGGTGCTGGCGTGGCACCATGCGGAGTCACCTAGTGCAG,14900 fluorescence intensity (a.u.)
5,CCCTGCTGCAGGAGCACTTGTTGGCTTGTTGCCCGCGGCTCGGAGTCACCTAGTGCAG,3240 fluorescence intensity (a.u.)
6,CTGGATCTCTGACTCCTGACATGAGGACAATACAAGTACTCGGAGTCACCTAGTGCAG,3370 fluorescence intensity (a.u.)
7,GATCCGGAGGATTAAACAAGTGGTGATTATGTCACGCCATCGGAGTCACCTAGTGCAG,3940 fluorescence intensity (a.u.)
8,TCCAGAGCCGTGACGCCGCGGCGCGGCACGGTGGCTGCTGCGGAGTCACCTAGTGCAG,3210 fluorescence intensity (a.u.)
9,AATTCCTCTGCGGCCGCCACGTGCACGCGCCGCCGTTGCCCGGAGTCACCTAGTGCAG,11100 fluorescence intensity (a.u.)
10,CTGGAGTAGCTCCCTGGGACGTGACGTGGCTTGGGTTGATCGGAGTCACCTAGTGCAG,13700 fluorescence intensity (a.u.)
11,TCTATATGCAGATCACAAGATTATGACTATGCTAGCACTACGGAGTCACCTAGTGCAG,3850 fluorescence intensity (a.u.)
12,GGAATGTCCAAAACGTGACTGGCTTCGCTGGAAGATAACCCGGAGTCACCTAGTGCAG,3310 fluorescence intensity (a.u.)
13,TATTGCCATCCGTTTCACCTAGCTGCCTCCCAACCAAATGCGGAGTCACCTAGTGCAG,3280 fluorescence intensity (a.u.)
14,GACGCCGCCATCGCCGCGTCACGCCACGCCACGCCACGCGCGGAGTCACCTAGTGCAG,16100 fluorescence intensity (a.u.)
15,GACGATGGACAGCTGGTCAGCTAGCAGCCAAGCATTGGCTCGGAGTCACCTAGTGCAG,17300 fluorescence intensity (a.u.)
16,GAGCGGTGGCCTCTCGAAGCCCCTCTTCCCGCTTCTGGGACGGAGTCACCTAGTGCAG,16400 fluorescence intensity (a.u.)
17,GAGCAGGAATACAGCCATTTGTCACCCTGACACACTACGACGGAGTCACCTAGTGCAG,3190 fluorescence intensity (a.u.)
18,TGTGGTGGGAGCTGTCTTGTACTGTCACTCCATTCATTGCCGGAGTCACCTAGTGCAG,27300 fluorescence intensity (a.u.)
19,GTCTTTGATCCAGGGATCCCTGTCACATCGAATGTTTGGACGGAGTCACCTAGTGCAG,3680 fluorescence intensity (a.u.)
20,GGATTCCGCAAATCCACGAAGAAAATCAAACTCCGAACCTCGGAGTCACCTAGTGCAG,12500 fluorescence intensity (a.u.)
21,ATGGGAATGGTGGCGATGGAGGTTGGGAACGGCGGTGGCGCGGAGTCACCTAGTGCAG,3200 fluorescence intensity (a.u.)
